Laboratory results: paper doi:10.1101/2020.09.18.303644
Results are given in words; binding and its absence hold for the method and conditions named. In cells and extracts the contact can be indirect. Some entries that bind do so weakly or less than the wild type.

Amino acid sequences for entries named in this document (tags omitted). A change or cut given only in a name is not applied to a line headed by its entry. Chains listed by the source or under a name are the forms on record and can include a tag or linker.
GFP-SERCA2a (P16615, form named): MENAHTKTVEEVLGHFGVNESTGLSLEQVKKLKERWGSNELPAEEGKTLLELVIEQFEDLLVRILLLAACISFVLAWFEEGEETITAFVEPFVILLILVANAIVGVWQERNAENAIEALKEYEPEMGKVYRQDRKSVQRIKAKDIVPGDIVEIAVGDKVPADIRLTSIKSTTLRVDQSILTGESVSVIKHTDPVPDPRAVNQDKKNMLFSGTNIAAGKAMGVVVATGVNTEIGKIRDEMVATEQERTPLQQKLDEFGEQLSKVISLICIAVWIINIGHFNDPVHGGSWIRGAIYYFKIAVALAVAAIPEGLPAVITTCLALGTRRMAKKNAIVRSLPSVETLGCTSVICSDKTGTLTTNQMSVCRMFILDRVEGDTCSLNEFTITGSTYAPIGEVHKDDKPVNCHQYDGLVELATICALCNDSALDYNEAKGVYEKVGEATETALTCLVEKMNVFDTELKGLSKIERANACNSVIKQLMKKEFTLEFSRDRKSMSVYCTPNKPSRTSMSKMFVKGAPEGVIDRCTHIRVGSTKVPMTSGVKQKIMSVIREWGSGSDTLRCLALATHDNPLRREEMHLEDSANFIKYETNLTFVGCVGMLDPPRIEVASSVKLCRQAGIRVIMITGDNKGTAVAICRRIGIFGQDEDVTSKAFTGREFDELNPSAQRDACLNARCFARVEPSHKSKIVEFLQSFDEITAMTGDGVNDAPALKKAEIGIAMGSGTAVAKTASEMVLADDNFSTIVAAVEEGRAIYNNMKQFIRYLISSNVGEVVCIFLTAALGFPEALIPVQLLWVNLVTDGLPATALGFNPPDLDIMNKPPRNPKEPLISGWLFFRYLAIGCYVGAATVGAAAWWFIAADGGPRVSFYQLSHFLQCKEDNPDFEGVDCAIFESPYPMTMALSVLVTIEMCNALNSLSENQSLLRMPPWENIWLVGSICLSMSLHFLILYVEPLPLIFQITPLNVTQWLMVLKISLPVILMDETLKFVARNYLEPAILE
UniProt P26678: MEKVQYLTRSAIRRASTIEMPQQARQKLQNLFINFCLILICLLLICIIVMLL

Biological target: GFP-SERCA2a (human) (UniProt P16615)
Assay: FRET or BRET

binding: binds
Substance: RFP-PLB (from UniProt P26678 1-52)
